Laboratory results reported in the supplement of paper PMC10735217.
Some of the results follow. This data set is noisy: repeats of one test often differ as much as different tests do.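 The human kidney-derived cells carry a stably integrated construct of eight TEAD-binding elements driving luciferase, read by luminescence in a drug-repurposing library screen. A compound counts as a hit when its signal is more than five robust Z scores above the plate mean.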

Tested on: HEK293A TEAD-LUC reporter
Assay: TEAD-luciferase reporter activity (YAP activation), robust Z score vs plate; higher = stronger YAP/TEAD activation
Settings: 24 h

| SMILES | TEAD-luciferase reporter activity (compound concentration: 200 nM) | TEAD-luciferase reporter activity (compound concentration: 2 uM) | TEAD-luciferase reporter activity (compound concentration: 10 uM) |
| --- | --- | --- | --- |
| COCCOC[C@H](CC1(C(=O)N[C@H]2CC[C@@H](C(=O)O)CC2)CCCC1)C(=O)O | inactive: 0.409 | inactive: -1.12 | inactive: -0.964 |
| Oc1nn(-c2ccccc2)c(O)c1-c1ccccc1 | inactive: -0.278 | inactive: -0.79 | inactive: 1.05 |
| CCCCCCCCCCCCCC[N+](C)(C)C | inactive: -0.895 | inactive: -0.805 | inactive: -0.332 |
| CCOc1ccc(C(=O)OCCN(CC)CC)cc1 | inactive: -1.29 | inactive: 0.186 | inactive: 1.83 |
| CCCCCCN(Cc1ccc(CC(C)(C)C)cc1)C(Nc1cc(C(C)(C)C)c(O)c(C(C)(C)C)c1)=C1C(=O)OC(C)(C)OC1=O | inactive: -0.977 | inactive: -0.162 | inactive: 1.18 |
| C=C1C[C@@H]2CC[C@@]34C[C@H]5O[C@H]6[C@@H](O3)[C@H]3O[C@H](CC[C@@H]3O[C@H]6[C@H]5O4)CC(=O)C[C@@H]3[C@@H](OC)[C@@H](C[C@H](O)CN)O[C@H]3C[C@H]3O[C@@H](CC[C@@H]1O2)C[C@@H](C)C3=C [Eribulin (mesylate)] | inactive: -0.2 | – | inactive: -0.382 |
| COc1nn(-c2cccc(NC(C)=O)c2)c(=O)n(Cc2ccc(Cl)c(F)c2)c1=O | – | inactive: -0.923 | – |
| NCCCN1C(=O)NC2(CCCCC2)C1=O | inactive: -2.54 | inactive: 2.33 | inactive: -1.96 |
| O=C([O-])CN(CCN1CC(=O)[O][Mn][O]C(=O)C1)CC(=O)[O-] [EDETATE manganese DISODIUM] | inactive: -1.84 | inactive: -0.663 | inactive: -0.408 |
| CC(=O)OCCOCn1cnc2c(O)nc(N)nc21 | inactive: 0.571 | inactive: -0.849 | inactive: 1.88 |
| Cc1c(OCC(F)(F)F)ccnc1CS(=O)c1nc2ccccc2[nH]1 (centres undefined) [dexlansoprazole] | – | inactive: 1.26 | – |
| Cc1c(OCC(F)(F)F)ccnc1CS(=O)c1nc2ccccc2[nH]1 (centres undefined) [Lansoprazole] | inactive: 0.626 | – | inactive: 3.75 |
| CCC(=O)O[C@]1(C(=O)CO)CC[C@H]2[C@@H]3CCC4=CC(=O)CC[C@]4(C)[C@H]3CC[C@@]21C [Cortexolone 17alpha-propionate] | inactive: 4.99 | inactive: -0.602 | inactive: 1.42 |
| CCN(CC)CCOC(=O)c1cccc(-c2ccccc2)c1O | inactive: -1.95 | inactive: -0.0114 | inactive: -0.451 |
| COc1nc(N)c2ncn([C@@H]3O[C@H](CO)[C@@H](O)[C@H]3O)c2n1 [Spongosine] | inactive: 0.278 | inactive: 0.115 | inactive: 2.89 |
| CCN(CC)CCOC1(c2ccccc2)CCN(CCNc2ccccc2)CC1 | inactive: 0.709 | inactive: -0.00155 | inactive: -0.0738 |
| CC(=O)c1cc(C(=O)NC2CC(C)(C)Cc3c2cnn3-c2cccc(F)c2)[nH]n1 (centres undefined) | inactive: 3.3 | inactive: -1.67 | inactive: 0.311 |
| CCN(CC(=O)NC(CC(=O)O)C(=O)NC(CC1CCCCC1)C(=O)O)C(=O)CCCC1CCNCC1 (centres undefined) | inactive: -0.505 | inactive: -1.2 | inactive: -0.31 |
| CC(=O)Oc1cccc(C(=O)O)c1OC(C)=O [Dipyrocetyl] | inactive: -0.32 | inactive: -0.626 | inactive: -0.295 |

| SMILES | TEAD-luciferase reporter activity (compound concentration: 200 nM) | TEAD-luciferase reporter activity (compound concentration: 2 uM) | TEAD-luciferase reporter activity (compound concentration: 10 uM) |
| --- | --- | --- | --- |
| CC(C)c1c(C(=O)Nc2ccccc2)c(-c2ccccc2)c(-c2ccc(F)cc2)n1CC[C@@H](O)C[C@@H](O)CC(=O)OCCCCO[N+](=O)[O-] | inactive: 0.979 | inactive: -0.555 | inactive: -0.184 |
| C[C@@H](c1ccccn1)c1c(CCN(C)C)sc2ccccc12 | inactive: -1.41 | inactive: 2.58 | active: 8.32 |
| CCn1cc(C(=O)O)c(=O)c2cc(F)c(N3CCNCC3)cc21 [Norfloxacin] | – | inactive: -1.22 | – |
| CCn1cc(C(=O)O)c(=O)c2cc(F)c(N3CCNCC3)cc21 | inactive: 0.237 | – | inactive: 2.23 |
| O=C(CCCO)NCCO [Etoxybamide] | inactive: -0.379 | inactive: -0.328 | inactive: 0.252 |
| Cc1nc(-c2ccc(C(F)(F)F)cc2)sc1COc1ccc(C(N)=O)c(Cl)c1 | inactive: -1.05 | inactive: -0.281 | inactive: -1.08 |
| NC1CCN(c2ccc(-c3ccccc3Cl)nn2)CC1 | inactive: -0.305 | inactive: 1.62 | inactive: -0.508 |
| N#CCC(=O)N1CCC(c2nc(-c3cccs3)no2)CC1 | inactive: 0.155 | inactive: 0.225 | inactive: 0.902 |
| OC(Cn1cncn1)(Cn1cncn1)c1ccc(F)cc1F [fluconazole] | – | inactive: -0.99 | – |
| OC(Cn1cncn1)(Cn1cncn1)c1ccc(F)cc1F | inactive: -3.54 | – | inactive: 0.167 |
| Cc1cc(CCCCCCCOc2ccc(C3=NCCO3)cc2)on1 | inactive: 1.77 | inactive: 0.201 | inactive: -0.147 |
| Cc1ccc(-c2cccc(CN3CCCC3C(=O)NCc3ccc(C(F)(F)F)cc3)c2)cc1Cl (centres undefined) | inactive: 3.91 | – | inactive: 1.88 |
| CC(C)n1c(=O)n(C(=O)NC2C[C@H]3CC[C@@H](C2)N3C)c2ccccc21 (some centres undefined) | inactive: 2.5 | inactive: -0.425 | inactive: -2.26 |
| Cc1cc(N2CCCCC2)nn2cnnc12 [zindotrine] | inactive: 0.0263 | inactive: -1.44 | inactive: -1.47 |
| Cc1nc(NC(=N)NS(=O)(=O)c2ccc(N)cc2)oc1C | inactive: -0.616 | inactive: -0.42 | inactive: 0.341 |
| C[C@]12CCC(=O)C=C1C=C[C@@H]1[C@@H]2CC[C@@]2(C)[C@H]1CC[C@@]21CCC(=O)O1 [Canre] | inactive: 0.218 | inactive: -0.155 | inactive: -0.401 |
| O=C(O)C[C@@H]1CC[C@H](NC(=O)Cc2cccs2)B(O)O1 | inactive: -0.859 | inactive: -1.93 | inactive: 0.277 |
| C1=C/COCc2cc(ccc2OCCN2CCCC2)Nc2nccc(n2)-c2cccc(c2)COC/1 [Pacritinib] | inactive: -1.27 | inactive: -2.68 | inactive: -1.69 |
| C[C@@H](O)[C@H](N)C(=O)N[C@@H](CO)C(=O)N[C@@H](CCCCN)C(=O)N[C@@H](Cc1ccc(O)cc1)C(=O)N[C@@H](CCCNC(=N)N)C(=O)O | inactive: -0.316 | inactive: 2.95 | inactive: 0.0394 |

Some of the entries so far, tab-delimited:
SMILES	TEAD-luciferase reporter activity (compound concentration: 200 nM)	TEAD-luciferase reporter activity (compound concentration: 2 uM)	TEAD-luciferase reporter activity (compound concentration: 10 uM)
CCCCCCCCCCCCCC[N+](C)(C)C	inactive: -0.895	inactive: -0.805	inactive: -0.332
CCOc1ccc(C(=O)OCCN(CC)CC)cc1	inactive: -1.29	inactive: 0.186	inactive: 1.83
CCCCCCN(Cc1ccc(CC(C)(C)C)cc1)C(Nc1cc(C(C)(C)C)c(O)c(C(C)(C)C)c1)=C1C(=O)OC(C)(C)OC1=O	inactive: -0.977	inactive: -0.162	inactive: 1.18

Remaining list, next part:

| SMILES | TEAD-luciferase reporter activity (compound concentration: 200 nM) | TEAD-luciferase reporter activity (compound concentration: 2 uM) | TEAD-luciferase reporter activity (compound concentration: 10 uM) |
| --- | --- | --- | --- |
| CC(C)(C)OC(=O)N[C@H]1CCCCCCCCC[C@@H](B(O)O)NC(=O)[C@@H]2C[C@@H](OC(=O)N3Cc4ccccc4C3)CN2C1=O | inactive: -0.478 | inactive: -0.912 | inactive: -0.497 |
| CCC(Cc1ccccc1)c1cc(O)c(C(CC)c2ccccc2)c(=O)o1 (centres undefined) | inactive: -1.36 | inactive: -0.474 | inactive: -2.39 |
| CNc1ccc([N+](=O)[O-])cc1C(=O)NCc1ccc(OC(F)F)c(OC)c1 | inactive: 1.41 | inactive: -0.575 | inactive: -1.13 |
| COc1cccc(N2CCN(C3=Nc4c(F)cccc4[C@H](CC(=O)O)N3c3cc(C(F)(F)F)ccc3OC)CC2)c1 [letermovir] | inactive: -0.989 | inactive: -0.979 | inactive: -0.507 |
| Nc1nc(Cl)nc2c1ncn2[C@H]1C[C@H](O)[C@@H](CO)O1 | inactive: -1.56 | – | inactive: 2.53 |
| Nc1nc(Cl)nc2c1ncn2[C@H]1C[C@H](O)[C@@H](CO)O1 [Cladribine] | – | inactive: -0.0306 | – |
| Cn1c(C(=O)NC(=N)N)cc2c(C(F)(F)F)ccc(OS(=O)(=O)O)c21 | inactive: -0.618 | inactive: -0.623 | inactive: 0.484 |
| CCCC(=O)OCC(COC(=O)CCC)OC(=O)CCC [tributyrin] | inactive: 0.573 | – | inactive: 2.48 |
| CC(=O)OCCN1CCN(CCCN2c3ccccc3Sc3ccc(Cl)cc32)CC1 | inactive: -0.523 | inactive: -1.04 | inactive: -0.25 |
| CC(C)=CCOc1cc(NC(=O)c2ccoc2C)ccc1Cl | inactive: -1.11 | inactive: -0.333 | inactive: -1.29 |
| CCC1=C(C)C2=N/C/1=C\c1[nH]c(c(c1C)C(=O)[O-])/C(=C/1\N=C(/C=c/3\[nH]/c(=C\2)/c(C=C)c3C)[C@H]([C@@H]1CCC(=O)[O-])C)/CC(=O)N[C@H](C(=O)[O-])CC(=O)[O-] [Talaporfin (sodium)] | inactive: 0.807 | – | inactive: 0.109 |
| COC(=O)C(C)c1ccc2oc(-c3ccc(F)cc3)nc2c1 (centres undefined) | inactive: -0.881 | inactive: -2.16 | inactive: -1.26 |
| COc1ccc(-c2nc3cc(C4=NNC(=O)CC4C)ccc3[nH]2)cc1 (centres undefined) [pimobendan] | inactive: -1.08 | inactive: 0.763 | inactive: 1.99 |
| CN(C)C(=O)CCCOC(=O)C(C)(C)Oc1ccc(Cl)cc1 | inactive: -0.882 | – | inactive: 0.476 |
| OC1(CN2CCC(COc3noc4cccc(O[C@@H]5CCOC5)c34)CC2)CCOCC1 | inactive: 2.15 | inactive: -0.717 | inactive: -0.471 |
| C[C@](N)(Cc1c[nH]c2ccccc12)C(=O)O [alpha-Methyltryptophan] | inactive: -0.299 | inactive: -1.14 | inactive: 1.28 |
| CC(C1=C(CCN(C)C)Cc2ccccc21)c1ccccn1 (centres undefined) | inactive: -2.1 | inactive: -0.518 | inactive: 2.21 |
| CCSc1ccc2c(c1)N(CCCN1CCN(C)CC1)c1ccccc1S2 [Thiethylperazine dimalate] | inactive: 4.12 | inactive: -1.12 | inactive: -1.61 |
